Laboratory results: publication PMC5746549
These are yes or no findings as the source states them, for the method shown. Binding seen in cells or lysates may run through a third protein. Some entries that bind do so weakly or less than the wild type. For part of these data: Tags and fused reporters may be left off the sequences shown.

Chains of the proteins cited; added tags and fusions are not shown.
UniProt Q61602: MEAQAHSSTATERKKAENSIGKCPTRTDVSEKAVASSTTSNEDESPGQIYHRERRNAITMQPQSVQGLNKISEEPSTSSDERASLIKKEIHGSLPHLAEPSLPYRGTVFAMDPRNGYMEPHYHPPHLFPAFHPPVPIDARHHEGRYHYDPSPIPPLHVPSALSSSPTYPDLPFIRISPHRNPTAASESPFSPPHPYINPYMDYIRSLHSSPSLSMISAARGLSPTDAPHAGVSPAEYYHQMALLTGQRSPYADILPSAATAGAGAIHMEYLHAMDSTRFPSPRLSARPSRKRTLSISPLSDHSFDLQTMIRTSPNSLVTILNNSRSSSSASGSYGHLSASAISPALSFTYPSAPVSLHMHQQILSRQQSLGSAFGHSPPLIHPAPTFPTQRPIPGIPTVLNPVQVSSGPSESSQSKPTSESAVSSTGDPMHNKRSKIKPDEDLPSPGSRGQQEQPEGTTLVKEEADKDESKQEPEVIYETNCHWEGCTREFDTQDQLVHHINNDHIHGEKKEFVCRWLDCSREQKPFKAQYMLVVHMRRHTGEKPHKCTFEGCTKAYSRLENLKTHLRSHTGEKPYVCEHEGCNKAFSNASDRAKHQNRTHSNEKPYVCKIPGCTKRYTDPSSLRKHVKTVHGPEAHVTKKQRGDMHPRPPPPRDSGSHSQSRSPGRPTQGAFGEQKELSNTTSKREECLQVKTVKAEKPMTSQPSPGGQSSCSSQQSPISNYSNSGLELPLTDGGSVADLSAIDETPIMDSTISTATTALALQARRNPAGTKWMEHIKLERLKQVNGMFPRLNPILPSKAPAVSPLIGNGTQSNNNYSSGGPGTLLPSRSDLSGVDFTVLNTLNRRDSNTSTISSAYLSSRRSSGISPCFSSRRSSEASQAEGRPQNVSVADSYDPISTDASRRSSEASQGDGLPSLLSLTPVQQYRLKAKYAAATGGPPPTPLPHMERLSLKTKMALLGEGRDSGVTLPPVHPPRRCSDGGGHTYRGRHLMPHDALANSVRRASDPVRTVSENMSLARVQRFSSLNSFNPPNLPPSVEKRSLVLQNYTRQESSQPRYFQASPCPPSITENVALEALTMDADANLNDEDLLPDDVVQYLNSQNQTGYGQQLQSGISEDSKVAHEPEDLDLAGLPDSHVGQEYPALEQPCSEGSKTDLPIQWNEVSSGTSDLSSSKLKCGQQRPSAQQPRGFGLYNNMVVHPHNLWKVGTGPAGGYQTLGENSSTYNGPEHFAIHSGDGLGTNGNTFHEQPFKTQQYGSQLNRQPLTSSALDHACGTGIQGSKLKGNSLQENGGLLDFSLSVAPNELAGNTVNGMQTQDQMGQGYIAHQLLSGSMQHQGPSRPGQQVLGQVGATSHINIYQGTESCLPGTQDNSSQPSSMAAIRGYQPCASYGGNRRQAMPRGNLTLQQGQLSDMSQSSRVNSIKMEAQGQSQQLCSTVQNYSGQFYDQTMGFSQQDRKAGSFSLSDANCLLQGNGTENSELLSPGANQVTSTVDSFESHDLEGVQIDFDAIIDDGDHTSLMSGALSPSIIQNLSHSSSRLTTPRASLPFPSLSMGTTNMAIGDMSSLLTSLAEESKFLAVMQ
UniProt Q9IA31: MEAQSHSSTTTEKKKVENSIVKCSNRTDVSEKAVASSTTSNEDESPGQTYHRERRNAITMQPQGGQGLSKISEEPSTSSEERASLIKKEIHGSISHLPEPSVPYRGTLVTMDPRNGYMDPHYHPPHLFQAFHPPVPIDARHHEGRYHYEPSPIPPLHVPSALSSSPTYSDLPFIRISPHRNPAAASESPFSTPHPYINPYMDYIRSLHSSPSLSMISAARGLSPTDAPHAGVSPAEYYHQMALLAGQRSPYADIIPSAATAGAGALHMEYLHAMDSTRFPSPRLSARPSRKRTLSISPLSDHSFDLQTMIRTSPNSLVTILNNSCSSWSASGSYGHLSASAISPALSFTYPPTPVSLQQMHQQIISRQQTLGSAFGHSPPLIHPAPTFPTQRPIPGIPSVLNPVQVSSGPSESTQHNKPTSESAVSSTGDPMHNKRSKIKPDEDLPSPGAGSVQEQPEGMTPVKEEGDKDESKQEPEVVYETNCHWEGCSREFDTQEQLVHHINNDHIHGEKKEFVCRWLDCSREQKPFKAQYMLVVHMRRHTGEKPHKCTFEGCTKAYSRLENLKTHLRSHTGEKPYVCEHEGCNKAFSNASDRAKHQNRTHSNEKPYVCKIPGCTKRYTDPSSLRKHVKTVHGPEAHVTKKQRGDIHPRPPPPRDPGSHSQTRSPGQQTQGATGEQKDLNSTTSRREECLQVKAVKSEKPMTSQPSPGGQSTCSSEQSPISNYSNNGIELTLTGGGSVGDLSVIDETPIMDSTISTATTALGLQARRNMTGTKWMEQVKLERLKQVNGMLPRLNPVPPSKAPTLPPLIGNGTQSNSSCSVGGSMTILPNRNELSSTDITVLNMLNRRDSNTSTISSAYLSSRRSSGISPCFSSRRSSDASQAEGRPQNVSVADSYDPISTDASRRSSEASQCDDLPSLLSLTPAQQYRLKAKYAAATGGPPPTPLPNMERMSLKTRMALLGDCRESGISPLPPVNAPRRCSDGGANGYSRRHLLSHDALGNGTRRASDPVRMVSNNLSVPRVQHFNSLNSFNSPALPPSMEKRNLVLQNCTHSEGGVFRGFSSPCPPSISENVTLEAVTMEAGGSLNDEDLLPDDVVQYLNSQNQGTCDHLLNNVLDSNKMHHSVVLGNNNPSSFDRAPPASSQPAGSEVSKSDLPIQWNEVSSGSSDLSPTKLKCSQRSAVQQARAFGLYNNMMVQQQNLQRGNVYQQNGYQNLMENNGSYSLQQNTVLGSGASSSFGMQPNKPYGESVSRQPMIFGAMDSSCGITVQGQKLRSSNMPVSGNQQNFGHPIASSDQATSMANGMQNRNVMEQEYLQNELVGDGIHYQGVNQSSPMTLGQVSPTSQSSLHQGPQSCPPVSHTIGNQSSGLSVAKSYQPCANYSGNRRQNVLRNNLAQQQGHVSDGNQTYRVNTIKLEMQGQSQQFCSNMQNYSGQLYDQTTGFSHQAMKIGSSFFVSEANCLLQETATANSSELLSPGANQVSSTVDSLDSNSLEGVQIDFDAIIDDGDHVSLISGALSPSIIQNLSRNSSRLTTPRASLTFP

Experiments:
[1] = molecular target: T1, chick Cdh7 (cadherin-7), transiently expressed in NIH3T3 cells (chick) (UniProt Q90763); test: co-IP; NIH3T3 cells transiently expressing Cdh7, cultured without or with the indicated doses of rN-Shh; pull-down with anti-Cdh7 mAb; blots for Gli3FL, Sufu, Gli3R, GSK3β
T1 sequence: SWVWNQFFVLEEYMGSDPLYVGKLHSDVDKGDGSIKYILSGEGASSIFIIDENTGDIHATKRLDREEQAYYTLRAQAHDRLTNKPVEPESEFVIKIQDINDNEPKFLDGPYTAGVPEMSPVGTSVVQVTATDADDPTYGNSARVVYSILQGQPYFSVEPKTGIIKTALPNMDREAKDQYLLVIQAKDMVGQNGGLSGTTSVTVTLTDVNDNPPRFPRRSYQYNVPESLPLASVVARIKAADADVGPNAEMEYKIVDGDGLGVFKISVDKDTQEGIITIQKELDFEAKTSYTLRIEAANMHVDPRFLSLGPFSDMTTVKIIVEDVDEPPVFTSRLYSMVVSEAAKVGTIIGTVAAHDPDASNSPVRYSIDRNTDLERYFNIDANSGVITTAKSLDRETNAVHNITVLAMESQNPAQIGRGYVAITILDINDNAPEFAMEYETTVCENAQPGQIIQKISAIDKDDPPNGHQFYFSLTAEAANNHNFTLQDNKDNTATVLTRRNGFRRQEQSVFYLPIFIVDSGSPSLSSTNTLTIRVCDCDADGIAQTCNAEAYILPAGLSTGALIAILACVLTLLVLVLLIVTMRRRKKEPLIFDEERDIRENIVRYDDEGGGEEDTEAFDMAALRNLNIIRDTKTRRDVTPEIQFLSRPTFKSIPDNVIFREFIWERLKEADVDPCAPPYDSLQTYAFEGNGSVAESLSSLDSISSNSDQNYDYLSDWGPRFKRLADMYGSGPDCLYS

[2] = molecular target: T2, endogenous Cdh7 of chick embryonic spinal cord (chick (endogenous in HH st. 17 chick embryo)) (UniProt Q90763); test: co-IP; endogenous proteins in HH st. 17 chick embryo spinal cord lysates; immunoprecipitation with anti-Shh, anti-Cdh7 or anti-Ncdh mAbs
T2 sequence: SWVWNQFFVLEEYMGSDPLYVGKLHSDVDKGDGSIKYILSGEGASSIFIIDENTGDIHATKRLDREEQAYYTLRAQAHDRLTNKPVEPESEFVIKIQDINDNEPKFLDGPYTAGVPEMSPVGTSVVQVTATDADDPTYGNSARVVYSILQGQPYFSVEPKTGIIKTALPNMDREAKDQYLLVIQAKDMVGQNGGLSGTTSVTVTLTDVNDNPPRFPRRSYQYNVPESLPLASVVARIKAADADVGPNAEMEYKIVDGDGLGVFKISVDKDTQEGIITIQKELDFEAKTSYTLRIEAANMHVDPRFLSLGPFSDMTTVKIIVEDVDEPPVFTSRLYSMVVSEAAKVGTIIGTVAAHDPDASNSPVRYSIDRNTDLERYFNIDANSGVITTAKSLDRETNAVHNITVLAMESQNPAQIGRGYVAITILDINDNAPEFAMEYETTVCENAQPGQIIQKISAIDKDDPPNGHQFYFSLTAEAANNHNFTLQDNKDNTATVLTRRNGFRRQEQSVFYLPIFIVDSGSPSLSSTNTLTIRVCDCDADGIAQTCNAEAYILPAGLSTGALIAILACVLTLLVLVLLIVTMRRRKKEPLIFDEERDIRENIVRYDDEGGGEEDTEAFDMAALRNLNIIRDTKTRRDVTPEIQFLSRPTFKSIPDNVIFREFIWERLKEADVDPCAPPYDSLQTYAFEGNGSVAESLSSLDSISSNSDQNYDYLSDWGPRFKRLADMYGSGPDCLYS

Gli3FL (full-length Gli3) of NIH3T3 cells (from UniProt Q61602 1-1583)
binding [1]: binds

endogenous Gli3FL of chick embryonic spinal cord (from UniProt Q9IA31 1-1544)
binding [2]: binds

B1: suppressor-of-fused (Sufu) of NIH3T3 cells (protein, UniProt Q9Z0P7 1-484)
chain: MAELRPSVAPGPAAPPASGPSAPPAFASLFPPGLHAIYGECRRLYPDQPNPLQVTAIVKYWLGGPDPLDYVSMYRNMGSPSANIPEHWHYISFGLSDLYGDNRVHEFTGTDGPSGFGFELTFRLKRETGESAPPTWPAELMQGLARYVFQSENTFCSGDHVSWHSPLDNSESRIQHMLLTEDPQMQPVRTPFGVVTFLQIVGVCTEELHSAQQWNGQGILELLRTVPIAGGPWLITDMRRGETIFEIDPHLQERVDKGIETDGSNLSGVSAKCAWDDLSRPPEDEEDSRSICLGTQPRRLSGKDTEQIRETLRRGLEINSKPVLPPINSQRQNGLTHDRAPSRKDSLGSDSSTAIIPHELIRTRQLESVHLKFNQESGALIPLCLRGRLLHGRHFTYKSITGDMAITFVSTGVEGAFATEEHPYAAHGPWLQILLTEEFVEKMLEDLEDLTSPEEFKLPKEYSWPEKKLKVSILPDVVFDSPLH
binding [1]: binds
